Assay results as given in US20070009882A1, “In vitro platform for screening agents inducing islet cell neogenesis” (priority 2003, published 2007).
At least one structure is not confirmed: it was looked up by name or label, or the drawing left a doubt.

Tested on: duct epithelial cells
Assay: Duct-to-islet transformation (differentiation) of islet-derived duct epithelial structures in culture
Assay type: cell-based, mongrel dogs
Conditions: Drug A with PI3-Kinase inhibited using Wortmannin

COC[C@H]1OC(=O)c2coc3c2[C@@]1(C)C1=C(C3=O)[C@@H]2CCC(=O)[C@@]2(C)C[C@H]1OC(C)=O [Wortmannin]
islet formation from the ducts: completely abrogated
